Source: PubChem BioAssay AID1224904 (Broad Institute, 2016).

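293T-iDUX4 dual-reporter cells; luminescence of the tet-on Italica luciferase control is read after 24 h.
The test concentration is not given here.
Percent change in the Italica control signal; more negative values mean stronger inhibition, which points to nonspecific, tet-on or cytotoxic effects.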

Values are in %.
Common to all entries: measured here: Italica tet-on control reporter.
Part of the compounds only, not a random draw; the main read-out is not listed here.

| structure | activity change (%) |
|---|---|
| `COc1ccc(C#Cc2cnc3c(c2)C(=O)N([C@H](C)CO)C[C@H](C)[C@H](CN(C)C(=O)Nc2cccc4ccccc24)O3)cc1OC` | -18.79 |
| `Cc1ccccc1-c1ccc(C2[C@@H]3CN(C(=O)Nc4cccc(F)c4)C[C@H]2N3)cc1` (some centres not stated) | -16.8 |
| `COc1ccc2c3c([nH]c2c1)[C@H](CO)N(Cc1ccccc1)CC31CCN(S(C)(=O)=O)CC1` | -14.07 |
| `CCCNC(=O)N1[C@H](C#N)[C@@H](c2ccccc2-c2ccc(C)cc2)[C@@H]1CO` | -28.98 |
| `N#C[C@H]1[C@@H](c2ccccc2C2=CCCCC2)[C@H](CO)N1C(=O)Cc1ccncc1` | 2.019 |
| `COc1ccc(NC(=O)N2CCC3(CC2)CN(CC2CC2)[C@H](CO)c2c3c3ccc(OC)cc3n2C)cc1` | -34.76 |
| `COc1ccc2c3c([nH]c2c1)[C@@H](CO)N(C(=O)C1CCCCC1)CC31CN(Cc2nccs2)C1` | -5.896 |
| `COc1ccc(C#Cc2ccc([C@@H]3[C@@H](CO)N4CCCCN(C)C[C@@H]34)cc2)cc1` | -61.43 |
| `CN(C)C(=O)c1cccc(-c2ccc3n(c2=O)C[C@@H]2[C@@H](CO)[C@H](C(=O)NCC(F)(F)F)[C@H]3N2C)c1` | 11.65 |
| `C/C=C/c1ccc([C@H]2[C@H](CO)N3CCCCN(S(=O)(=O)c4ccc(F)cc4)C[C@@H]23)cc1` | -7.338 |
| `O=C(C[C@@H]1CC[C@@H]2[C@H](COC[C@@H](O)CN2Cc2nccs2)O1)NCc1ccc(Oc2ccccc2)cc1` | -33.35 |
| `N#Cc1ccc(-c2ccc([C@H]3[C@@H](CO)N4CCCCN(C(=O)Cc5ccccc5)C[C@H]34)cc2)cc1` | -12.44 |
| `O=S(=O)(c1ccc(F)cc1)N1CCCCN2[C@H](CO)[C@H](c3ccc(-c4cncnc4)cc3)[C@@H]2C1` | -5.713 |
| `Cc1ccccc1S(=O)(=O)N1CC(=O)N2[C@H](C1)[C@H](c1ccc(C#CC3CC3)cc1)[C@@H]2CO` | -0.3217 |
| `C[C@H]1CN([C@@H](C)CO)C(=O)c2ccccc2-c2ccccc2CO[C@@H]1CN(C)Cc1ccc(C(F)(F)F)cc1` | -5.536 |
| `COc1cccc(-c2ccc([C@@H]3[C@@H](CO)N4CCCCN(S(=O)(=O)c5cccs5)C[C@@H]34)cc2)c1` | -2.771 |
| `O=C(c1ccc2c(c1)OCO2)N1CC(=O)N2[C@H](CO)[C@H](c3ccc(C#CC4CCCC4)cc3)[C@@H]2C1` | -13.51 |
| `CN1c2ccc(C#Cc3cccnc3)cc2[C@H]2[C@H](CCN2S(=O)(=O)c2cccc(F)c2)[C@@H]1CO` | -2.225 |
| `CN1c2ccc(-c3cccc(C#N)c3)cc2[C@H]2[C@H](CCN2S(=O)(=O)c2ccccc2F)[C@H]1CO` | -89.29 |
| `O=C(C[C@H]1C[C@@H]2c3cc(NC(=O)Nc4ccc(C(F)(F)F)cc4)ccc3O[C@@H]2[C@@H](CO)O1)NCCc1ccccc1` | -68.19 |
| `COc1ccc2c3c([nH]c2c1)[C@H](CO)N(C(=O)CN(C)C)CC31CCN(Cc2ccccc2Cl)CC1` | -45.52 |
| `CN1CCN(C(=O)[C@@H]2[C@@H](CO)[C@@H]3Cn4c(ccc(C5=CCCC5)c4=O)[C@H]2N3S(C)(=O)=O)CC1` | 7.076 |
| `COc1ccc(-c2ccc3c(c2)[C@H]2[C@H](CCN2C(=O)c2ccc4c(c2)OCO4)[C@H](CO)N3)cc1` | -27.32 |
| `O=C(Nc1ccc2c(c1)OCO2)N1C[C@@H]2N[C@H](C1)C2c1ccc(-c2ccccc2)cc1` (some centres not stated) | -20.26 |
| `N#C[C@H]1[C@H](c2ccc(-c3ccc(F)cc3)cc2)[C@H](CO)N1C(=O)Cc1ccccc1` | -14.24 |
| `O=C(Cc1ccccn1)N[C@H]1CC[C@H](CCn2cc(-c3ccc(F)cc3)nn2)O[C@@H]1CO` | -37.07 |
| `CCc1cnc(N2[C@H](C#N)[C@H](c3ccc(C4=CCCCC4)cc3)[C@H]2CO)s1` | -32.75 |
| `Cc1ccc(S(=O)(=O)N2CC[C@@H]3[C@H]2c2cc(-c4cccc(C#N)c4)ccc2N(C)[C@H]3CO)cc1` | -30.55 |
| `O=C(C[C@H]1CC[C@H]2[C@@H](COC[C@H](O)CN2Cc2nccs2)O1)NCc1ccc(Oc2ccccc2)cc1` | -35.02 |
| `COc1ccc(CN2C[C@@H](O)COC[C@@H]3O[C@H](CC(=O)N4CCc5ccccc5C4)CC[C@H]32)cc1` | -19.87 |
| `Fc1cccc(-c2ccc(C3[C@@H]4CN(Cc5ccccc5F)C[C@H]3N4)cc2)c1` (some centres not stated) | -83.56 |
| `C[C@@H]1CN([C@@H](C)CO)C(=O)c2c(c3ccccc3n2C)-c2ccccc2CO[C@H]1CN(C)C(=O)Nc1cccc(C(F)(F)F)c1` | -44.69 |
| `C[C@@H](NC(=O)N(C)C[C@@H]1OCc2ccccc2-c2ccccc2C(=O)N([C@@H](C)CO)C[C@@H]1C)c1ccccc1` | -3.29 |
| `C[C@H]1CN([C@@H](C)CO)C(=O)CCCn2nncc2CO[C@H]1CN(C)Cc1cccc(C(F)(F)F)c1` | -5.392 |
| `COc1cccc(CN2CC3(C2)CN(C(=O)C2CC2)[C@@H](CO)c2[nH]c4cc(OC)ccc4c23)c1` | -5.074 |
| `COC(=O)[C@H]1[C@H](CO)[C@H]2Cn3c(ccc(-c4cccc(F)c4)c3=O)[C@H]2N1CC1CCCC1` | -7.112 |
| `O=C(C[C@H]1CC[C@@H]2[C@H](COC[C@@H](O)CN2C(=O)Nc2ccc(C(F)(F)F)cc2)O1)NCC1CCCCC1` | -12.09 |
| `C[C@H](CO)N1C[C@H](C)[C@H](CN(C)C(=O)NC2CCCCC2)OCc2ccccc2-c2c(n(C)c3ccccc23)C1=O` | -79.84 |
| `C[C@H]1CN([C@@H](C)CO)C(=O)c2c(c3ccccc3n2C)-c2ccccc2CO[C@@H]1CN(C)Cc1ccc(F)cc1` | -19.6 |
| `O=C(Cc1ccccn1)N[C@@H]1CC[C@H](CCn2cc(-c3ccc(F)cc3)nn2)O[C@@H]1CO` | -87.58 |
| `N#C[C@@H]1[C@@H](c2ccccc2C2=CCCC2)[C@@H](CO)N1C(=O)NC1CCCCC1` | -19.15 |
| `Cc1cccc(S(=O)(=O)N(C)C[C@@H]2OCc3ccccc3-c3c(n(C)c4ccccc34)C(=O)N([C@H](C)CO)C[C@H]2C)c1` | -24.29 |
| `O=C(C[C@H]1CC[C@H]2[C@@H](COC[C@H](O)CN2C(=O)c2ccccc2F)O1)NCc1ccc(-c2ccccc2)cc1` | -19.95 |
| `COc1ccccc1CNC(=O)C[C@H]1C[C@H]2c3cc(NC(=O)Nc4ccccc4F)ccc3O[C@H]2[C@@H](CO)O1` | 2.565 |
| `COc1cccc(C#Cc2ccc([C@H]3[C@H](CO)N4C(=O)CN(C(=O)c5ccccc5)C[C@@H]34)cc2)c1` | -12.29 |
| `C/C=C/c1ccc([C@@H]2[C@H](CO)N3C(=O)CN(C(=O)Nc4ccccc4F)C[C@@H]23)cc1` | -19.76 |
| `COCC(=O)Nc1ccc2c(c1)C(=O)N(C)C[C@@H](OC)[C@H](C)CN(CCc1ccccc1)[C@H](C)CO2` | -4.554 |
| `COc1ccc(S(=O)(=O)N2CCCCN3[C@@H](CO)[C@H](c4ccc(C5=CCCC5)cc4)[C@@H]3C2)cc1` | -3.582 |
| `COc1cccc(CN(C)C[C@@H]2OCc3ccccc3-c3c(n(C)c4ccccc34)C(=O)N([C@H](C)CO)C[C@@H]2C)c1` | -37.34 |